For this data set, the system named is rats with abdominal aortic constriction (AAC) or sham operated. Description: Post-sacrifice morphometric measurements (body, heart and organ weights, heart rate) to assess cardiac hypertrophy. The class given is in vivo, rat. The conditions noted are these: quercetin diet, mean ± SEM. The text has this:
In this procedure the abdominal aorta is constricted to increase the afterload on the heart and produce pressure overload. […] Rats consumed this diet for 7 days.
On the 8th day, 5 rats were surgically modeled for pressure overload by constricting the abdominal aorta to a diameter of 0.63 mm with a Weck hemoclip. The other 5 rats were sham operated (anesthetized and the aorta exposed, but not constricted). […] Another group of 10 rats were placed on a standard diet with no supplement and treated in an identical fashion with 5 surgically modeled for pressure overload and 5 sham operated. […] Two weeks after surgery post-sacrifice morphometric measurements are obtained by measuring total heart weight, left ventricle weight, and calculating heart:body weight and left ventricle:body weight ratios to assess cardiac mass and cardiac hypertrophy.
Post-sacrifice morphometric measurements are obtained by measuring body weight, total heart weight, calculating heart:body weight ratios and heart rate to assess cardiac mass and cardiac hypertrophy.

Structures are written as SMILES. Marks after values point to notes of the source that are not given here.

`O=c1c(O)c(-c2ccc(O)c(O)c2)oc2cc(O)cc(O)c12` [quercetin, 3,5,7,3′,4′-pentahydroxyflavone]: where the note is “AAC + Q (n = 9)”, the Body wt. was 342 ± 7 g, the “Heart Rate” value is on record as 414 ± 9^b BPM, the Liver wt. amounted to 10.6 ± 0.6 g and the Lung wt. is given as 1.48 ± 0.05 g. Under “Sham + Q (n = 10)”, the Body wt. worked out at 342 ± 10 g, the “Heart Rate” value was 402 ± 9^b BPM, the Liver wt. was found to be 11.1 ± 0.7 g and the Lung wt. is on record as 1.50 ± 0.05 g.

Values taken from US20080026076A1 (priority 2003, published 2008).
